Results reported in article PMC7819943, “Rice protein-binding microarrays: a tool to detect cis-acting elements near promoter regions in rice”.
This is one part of the list.

target: T1, OsSMF1 (Oryza sativa, UniProt Q6ZLB0 1-436); test: protein-binding microarray (RPBM); PBS, 2% BSA, 51.3 ng/ul salmon testes DNA, 50 uM zinc acetate, 200 nM TF, 25 C, 1 h; high values mean tight binding; settings: protein: recombinant; tags: N-terminal polyhistidine and DsRed monomer fusion (pET32a); chain copies: 2; label: CyDye5-dUTP incorporated in the synthesized complementary strand; 3' TTTTT single-stranded linker to array surface; dsDNA, one strand shown
T1 sequence: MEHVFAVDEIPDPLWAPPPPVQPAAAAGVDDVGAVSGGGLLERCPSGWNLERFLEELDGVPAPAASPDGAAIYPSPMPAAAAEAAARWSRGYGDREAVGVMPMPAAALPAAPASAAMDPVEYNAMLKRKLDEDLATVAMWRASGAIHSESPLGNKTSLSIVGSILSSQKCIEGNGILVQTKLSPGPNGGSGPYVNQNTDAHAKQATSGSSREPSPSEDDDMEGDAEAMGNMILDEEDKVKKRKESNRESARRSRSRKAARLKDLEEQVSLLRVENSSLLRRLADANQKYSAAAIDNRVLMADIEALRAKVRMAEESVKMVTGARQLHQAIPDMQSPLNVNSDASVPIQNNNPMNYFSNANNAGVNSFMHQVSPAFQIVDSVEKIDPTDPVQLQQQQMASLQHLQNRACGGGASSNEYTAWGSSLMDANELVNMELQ
How it was run: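 Using Ni–NTA, transcription factors fused N-terminally to polyhistidine and DsRed were purified after expression in E. coli BL21-CodonPlus. These were incubated at 200 nM with a blocked, double-stranded custom Agilent array for 1 h at 25 °C in a buffer containing 50 µM zinc acetate, and the array was washed. The binding signal is per-feature fluorescence intensity (arbitrary units) on an Axon 4000B scanner.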

| Sequence | binding signal |
| --- | --- |
| GCGCCCGCCGTGTTGGATGCGTCACCGCCCTCCGTTTCAGCGGAGTCACCTAGTGCAG | 7400 fluorescence intensity (a.u.) |
| CGCCTATATGTATGTTTTGACTGGGTCATCGTCCCATGCGCGGAGTCACCTAGTGCAG | 29600 fluorescence intensity (a.u.) |
| AACAGCGGCGAACGACACGAATCCTTCCACGTCATCGATCCGGAGTCACCTAGTGCAG | 31000 fluorescence intensity (a.u.) |
| ATGAACATATTTCAATCGTTCAGTACCTTCAAGCCACAGGCGGAGTCACCTAGTGCAG | 39800 fluorescence intensity (a.u.) |
| GTACTAGGGGAGTACACGTGGACAGAAGAAAGGAAAAGAGCGGAGTCACCTAGTGCAG | 4140 fluorescence intensity (a.u.) |
| GAAATAATTATACTAAATCCAGATGTTGCATGCATGATACCGGAGTCACCTAGTGCAG | 3420 fluorescence intensity (a.u.) |
| ACCAATTAAGGTGAAGATCTAGCAGATGAGCTGTAATAGCCGGAGTCACCTAGTGCAG | 4430 fluorescence intensity (a.u.) |
| AAACATCATATCAAATCTTTGGACATAGGTATAGAATATTCGGAGTCACCTAGTGCAG | 8890 fluorescence intensity (a.u.) |
| GGACTTTAAGATGTAACGTGTGTATGACAGGTGAGACCAGCGGAGTCACCTAGTGCAG | 4860 fluorescence intensity (a.u.) |
| ATCCACCACGCAACCTTGCCGCCGCACTTGCACATGATGGCGGAGTCACCTAGTGCAG | 3460 fluorescence intensity (a.u.) |
| AAGCCTCCTTGGCACTGTCACCACTTAGCCAGCCTTCACCCGGAGTCACCTAGTGCAG | 4270 fluorescence intensity (a.u.) |
| GTAGAAGCCTCTACTATCTACCCTATATATGCATCATTTGCGGAGTCACCTAGTGCAG | 3240 fluorescence intensity (a.u.) |
| CACACCTCCACCAACTAGCTGCCACGCTCGCTTTCCCCTGCGGAGTCACCTAGTGCAG | 3800 fluorescence intensity (a.u.) |
| GGGGCACATGTTGGTCTCACGCTGACTTAGCCGTCACGTCCGGAGTCACCTAGTGCAG | 4670 fluorescence intensity (a.u.) |
| ATGAGGCCGACGTTGGCGGCCCCGTAGAAGGCCATGGGGCCGGAGTCACCTAGTGCAG | 3820 fluorescence intensity (a.u.) |
| CTCTTCAGGGAACAGAATCAAATCAGCATTTTAACTAACTCGGAGTCACCTAGTGCAG | 40100 fluorescence intensity (a.u.) |
| GACACACCACGCGTGGCAGAGCACACCACGCCCCAATTCGCGGAGTCACCTAGTGCAG | 4120 fluorescence intensity (a.u.) |
| TTAGAACTTATAAACACTTCAATGAATGACTGTCACAGTTCGGAGTCACCTAGTGCAG | 4150 fluorescence intensity (a.u.) |
| TTTCTAATTCGTCATTCACCTCTCTCCTCCATCTCTACCCCGGAGTCACCTAGTGCAG | 3520 fluorescence intensity (a.u.) |
| CGGCCTATAAGTACTCCATCCCGCCGGCCGGCCGGTGACTCGGAGTCACCTAGTGCAG | 3370 fluorescence intensity (a.u.) |
| GTGTGTACTGCCACTGTGTGTGTGTGTGTGTGTGTGTGTGCGGAGTCACCTAGTGCAG | 4570 fluorescence intensity (a.u.) |

| Sequence | binding signal |
| --- | --- |
| GAGCTTCGTGTCTGATGACGTATACAAGATTTTGGGGTGACGGAGTCACCTAGTGCAG | 13700 fluorescence intensity (a.u.) |
| GATTGATCGATTAATCTGGGTGTACGTGGAGCACACACCTCGGAGTCACCTAGTGCAG | 3840 fluorescence intensity (a.u.) |
| GAAAGTAGCATGATGTGGCGCTTACGTGGCAGTGATAGACCGGAGTCACCTAGTGCAG | 35000 fluorescence intensity (a.u.) |
| CGGCCGTCGCCCGAGAGCGAACGGCCGTCTGCCACGTCATCGGAGTCACCTAGTGCAG | 35700 fluorescence intensity (a.u.) |
| GCCGGATCGAGCCCAACGCCACAGTTTCTTCTCGTCACAACGGAGTCACCTAGTGCAG | 3210 fluorescence intensity (a.u.) |
| AAATTAACGATGAGATTAGATAGTGCATGTGGTGACTTAGCGGAGTCACCTAGTGCAG | 29700 fluorescence intensity (a.u.) |
| TGGTCTGGTCTGCTGACTCGCTGATCGAATACTCTAGCATCGGAGTCACCTAGTGCAG | 5260 fluorescence intensity (a.u.) |
| GTGCCACTGCCGCCGCCGTCCTCCTTCCCCACATCAGCGCCGGAGTCACCTAGTGCAG | 4320 fluorescence intensity (a.u.) |
| GTTGTCCTTTTGTCTTGTGGATGTGGAGAATGCGATGCCACGGAGTCACCTAGTGCAG | 3320 fluorescence intensity (a.u.) |
| TCGGCAGGTTAGATTAGGTCAACAAACCACGTTAGCGAGACGGAGTCACCTAGTGCAG | 3870 fluorescence intensity (a.u.) |
| GTTGTTCGCGCGCGATCTGTGCACGCGTCACGTACGCGCCCGGAGTCACCTAGTGCAG | 3550 fluorescence intensity (a.u.) |
| CCTGTATCGGGCATGTTCGTGGAGGTTGATGTCATGGCCGCGGAGTCACCTAGTGCAG | 3750 fluorescence intensity (a.u.) |
| CGAATCCAAGCCTGTGTCGTGGCTCCGTTTCGGTTGGGTTCGGAGTCACCTAGTGCAG | 3290 fluorescence intensity (a.u.) |
| CTGATTGCGATTACGACGTAAACATCAGGACCGTAGGGACCGGAGTCACCTAGTGCAG | 31200 fluorescence intensity (a.u.) |
| GAAGATGATATTATTATCAGCGTCACCTTTGGTTACCGAACGGAGTCACCTAGTGCAG | 8810 fluorescence intensity (a.u.) |
| TGTAACGAAGAGTTTGATCACGCGTCTCTCGTCATGTTGTCGGAGTCACCTAGTGCAG | 3170 fluorescence intensity (a.u.) |
| ATCCAGTCTCTCTATTAGCTTGTATCCCTATTCTTATTCTCGGAGTCACCTAGTGCAG | 26000 fluorescence intensity (a.u.) |
| AATTTGATTCTTTTAGCCATGCCACTACACGCGGTAGACTCGGAGTCACCTAGTGCAG | 3340 fluorescence intensity (a.u.) |
| AATCTACATCTATGATCTGTCACTGCTTCTCTCTCTCTCCCGGAGTCACCTAGTGCAG | 4680 fluorescence intensity (a.u.) |
| GAAGGTTTGAAGGATGTGGCATTCTGTTGATTTGGATTAACGGAGTCACCTAGTGCAG | 4450 fluorescence intensity (a.u.) |
| CAGGAATTGTGTGTTGTATGCAAGTATGACATCCACAAGTCGGAGTCACCTAGTGCAG | 3210 fluorescence intensity (a.u.) |

Reformatted: entries from further up
Sequence | binding signal
CGGCCGTCGCCCGAGAGCGAACGGCCGTCTGCCACGTCATCGGAGTCACCTAGTGCAG | 35700 fluorescence intensity (a.u.)
GCCGGATCGAGCCCAACGCCACAGTTTCTTCTCGTCACAACGGAGTCACCTAGTGCAG | 3210 fluorescence intensity (a.u.)
